The other results are listed elsewhere or left out. The main result of the screen is listed elsewhere. These columns were measured beside it and carry no call. Compounds called inactive in the main read-out are mostly missing here. The note in brackets gives the kind of curve behind each potency; many fits are weak.

The nature of the assay: qHTS Assay to Find Inhibitors of Chronic Active B-Cell Receptor Signaling. The following applies: ABC-DLBCL IkBa-CBG/CBR reporter, luminescence ratio (green luciferase fused to IkBa over red control in TMD8 lymphoma cells), 4 h; measured here: CBR red luminescence, cell number. In a few lines:
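Cell line TMD8 (human ABC DLBCL), stably expressing tet-inducible CBG68-IkBa fusion and CBR; IMDM/0.5% FBS; cpd up to 46 uM; dox induction, 4 h, 37C/5% CO2; dual luminescence; green/red ratio; MG132 control.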
By AC50 is commonly meant the midpoint of the concentration-response curve, whichever way the signal moves. Turning to `C#CCN1C(=O)C2(C(C#N)=C(N)OC(C)=C2C(=O)OCc2ccccc2)c2ccccc21` (configuration not stated), the AC50 is 20 µM [falling, partial curve, poor fit].
As for `c1ccc(-c2[nH]c(-c3ccccc3)[n+](CC3CO3)c2-c2ccccc2)cc1` (configuration not stated), the AC50 was 18.4 µM [falling, single point].
Turning to `CCOC(C(=O)OCC(O)CN(CC)CC)(c1ccccc1)c1ccccc1` (configuration not stated), the half-maximal activity concentration (AC50) is 35.5 µM [falling, single point].
Regarding `Cc1nc2cc(C(F)(F)F)ccc2n1C1CCN(Cc2nnnn2Cc2ccc3c(c2)OCO3)CC1`, the concentration at half-maximal activity (AC50) was 23.1 µM [falling, single point].
For `CSCCC(NC(=O)CCC(=O)OC1CC[C@H]2[C@@H]3CC[C@H]4CC(=O)CC[C@]4(C)[C@H]3CC[C@]12C)C(=O)O` (some centres not stated), the half-maximal activity concentration (AC50) was 35.5 µM [falling, single point].
Take `CCCCCCC(C)(C)c1ccc([C@@H]2C[C@H](O)CC[C@H]2CCCO)c(O)c1`: the AC50 was 29.1 µM [falling, single point].
For `CCc1ccc(CN2CCN(Cc3cc(Br)ccc3O)CC2)cc1` the value was 3.55 µM [falling, single point]; for `O=C(c1ccccc1)c1cc2ccccc2o1`, 2.24 µM [rising, partial curve, poor fit].
On to `Clc1ccccc1Nc1ncnc(-n2cccc2)n1`, for which the AC50 is 12.6 µM [falling, partial curve, poor fit].
Under `CC1CN(C)C(C)(C)CC1(O)c1ccccc1` (configuration not stated) stands 29.1 µM [falling, single point]; under `COc1cc(C=C2C(=O)NC(=O)NC2=O)cc(OC)c1OC`, 25.1 µM [rising, partial curve, poor fit].
Turning to `O=C(NC12CC3CC(CC(C3)C1)C2)OC1CN2CCC1CC2` (configuration not stated), the AC50 is 35.5 µM [falling, single point].
As to `COc1cc2c(C(=O)O)c(C)n(C)c2cc1Br`, the AC50 was 22.4 µM [rising, single point].
For `COC(=O)C1=C(c2ccc(-c3ccccc3)c(F)c2)C[C@@H]2CC[C@H]1N2C(=O)NCc1ccco1` the value was 16.4 µM [falling, single point].
In the case of `CC(C)(O)/C=C/C(=O)[C@](C)(O)C1[C@H](O)C[C@@]2(C)C3CC=C4C(C[C@H](O)[C@@H](O)C4(C)C)[C@]3(C)C(=O)C[C@]12C` (some centres not stated), the AC50 is 29.1 µM [falling, single point].
Under `Cc1cccc(-c2cccc(NC(=O)C3CCCN(Cc4cccnc4)C3)c2)c1` (configuration not stated) stands 12.6 µM [falling, partial curve].
Consider `CNC(=O)Oc1cccc2ccccc12`, for which the AC50 was 7.94 µM [rising, partial curve, poor fit].

The values above are taken from PubChem BioAssay AID493014 (National Center for Advancing Translational Sciences (NCATS), 2011).
